At least one peptide structure holds a part that was inferred or is arguable (an end, a ring closure or a residue). Where no end group is shown, it is not given here.
System: E. coli
Assay: Antimicrobial activity assay, colony forming units after incubation with E. coli (Example 2, FIGS. 4 and 5)
Format: cell-based
Details: FIG. 4; 28 μg/ml; four hours incubation at 37°C; concentration dependent
Procedure: Purified recombinant lacritin variant proteins were assayed for antimicrobial activity by standard methods that involves an incubation period with actively growing bacteria and the protein of interest followed by plating on agar plates supplemented with growth media. The agar plates are incubated overnight and individual colonies are counted and expressed as Colony Forming Units (CFUs). The number of CFUs can be compared to the same bacteria incubated without protein.
E. coli at exponential growth (OD600=0.5) were washed twice in Phosphate Buffer (PB) diluted to a concentration of 1×10^6 cells/ml in PB and incubated with PB (no protein) or test proteins at 37° C. Samples were diluted and plated in triplicate on LB plates after four hours of incubation. Plates were grown at 37° C. overnight and counted. Colony counts were averaged and plotted as CFU/ml×10^3. The incubation volume was 0.5 ml at 25 mM NaCl.
C-25 was tested at a concentration of 53 μg/ml and N-71 was tested at various concentrations in μg/ml as shown in parentheses. pLAC is full length recombinant mature lacritin, and was tested at a concentration of 46 μg/ml. Bacteria incubated with buffer alone (the control) produced an average of 77×10^3 CFU/ml. Incubation with the lacritin variant C-25 produced an average of 79×10^3 or 103% of the control. […]

## MSILLTEQALAKAGKGMHGGVPGGKQFIENGSEFAQKLLKKFSLLKPWA [Construct N-71]
  CFU as % of the control: less than 1%

— patent US20090312252A1, “Antimicrobial Activity in Variants of Lacritin” (priority 2006, published 2009)
